Results on 72 substances are retold here after patent US10159726B2, “Peptides, combination of peptides and scaffolds for use in immunotherapeutic treatment of various cancers” (Immatics Biotechnologies GmbH, priority 2015, dated 2018).

The first series relates to HLA-A*24 molecules of primary tumors. Description: Identification and relative LC-MS quantitation of HLA-A*24 tumor-associated peptides presented on tissue samples (XPRESIDENT presentation profiles). Details: species or system human. The following applies: FIG. 1 presentation profile; shown are only samples where the peptide was found to be presented.
Consider “IYSFHTLSF (listed as Homo sapiens) [SEQ ID NO: 113]”, for which the “number of cancer tissues on which the peptide was found presented” value (shortened to “number of cancer tissues”) worked out at 28.
On to “NYIPVKNGKQF (listed as Homo sapiens) [SEQ ID NO: 103]”, for which the “number of cancer tissues” value is recorded as 11.
Consider “RYLNKSFVL (listed as Homo sapiens) [SEQ ID NO: 115]”, for which the “number of cancer tissues” value is recorded as 25 and the “number of normal tissues on which the peptide was found presented” value (“number of normal tissues” below) is given as 1.
Turning to “RYGLPAAWSTF (listed as Homo sapiens) [SEQ ID NO: 121]”, the “number of cancer tissues” value came out at 20.
Take “IYKWITDNF (listed as Homo sapiens) [SEQ ID NO: 155]”: the “number of cancer tissues” value is 53 and the “number of normal tissues” value stood at 4.
The like results for “EYLDRIGQLFF (listed as Homo sapiens) [SEQ ID NO: 131]” were, in that order, 41 and 2.
Regarding “SYGTVSQIF (listed as Homo sapiens) [SEQ ID NO: 148]”, the “number of cancer tissues” value is listed as 100 and the “number of normal tissues” value was 5.
Consider “FYINGQYQF (listed as Homo sapiens) [SEQ ID NO: 176]”, for which the “number of cancer tissues” value is listed as 67, the “number of cell lines on which the peptide was found presented” value was 1 and the “number of normal tissues” value amounted to 3.

The same series, now with this note: Table 9A: selected HLA-A*24-binding tumor-associated peptides; cancer entities on which the peptide was found presented.
Consider “127 (QYFTGNPLF; listed as Homo sapiens) [compound 127]”, for which the ENTITIES entry is given as “NSCLC, GC, GB, RCC, PCA”.
For the substance “160 (RYGDGGSSF; listed as Homo sapiens) [compound 160]”, the ENTITIES result is on record as “PCA, NSCLC, GC”.
As to “134 (AYIPTPIYF; listed as Homo sapiens) [compound 134]”, the ENTITIES entry is “PCA, NSCLC, GB”.
As for “257 (IFIDNSTQPLHF; listed as Homo sapiens) [compound 257]”, the ENTITIES entry was “HCC”.
As for “232 (YYLSDSPLL; listed as Homo sapiens) [compound 232]”, the ENTITIES result is on record as “NSCLC, GC”.
“378 (VYIAELEKI; listed as Homo sapiens) [compound 378]”: the ENTITIES result is given as “HCC, NSCLC”.
Still for that read-out and setting: the same measure for “165 (EYFTPLLSGQF; listed as Homo sapiens) [compound 165]”: “NSCLC”.
As for “349 (QYSIISNVF; listed as Homo sapiens) [compound 349]”, the ENTITIES result is “GC, HCC, NSCLC”.
For “392 (RYLDSLKAIVF; listed as Homo sapiens) [compound 392]”, the ENTITIES entry is on record as “NSCLC, GC, RCC, HCC”.
For “249 (RYHPTTCTI; listed as Homo sapiens) [compound 249]”, the ENTITIES result was “NSCLC”.
Take “367 (LYQDHMQYI; listed as Homo sapiens) [compound 367]”: the ENTITIES entry is given as “HCC, NSCLC, GC, GB, PCA”.
Consider “97 (TYTFLKETF; listed as Homo sapiens) [compound 97]”, for which the ENTITIES result is “PCA, HCC, NSCLC, GB”.
On the same count and under the same terms, the same measure for “407 (VYGIRLEHF; listed as Homo sapiens) [compound 407]”: “HCC, NSCLC, GC, GB”.
Turning to “341 (SYLTQHQRI; listed as Homo sapiens) [compound 341]”, the ENTITIES entry was “PCA, NSCLC”.
As for “305 (NYENKQYLF; listed as Homo sapiens) [compound 305]”, the ENTITIES result is recorded as “NSCLC, GB, HCC”.
Same read-out and setting: the same measure for “389 (EYLPEFLHTF; listed as Homo sapiens) [compound 389]”: “NSCLC”; for “226 (MYLKLVQLF; listed as Homo sapiens) [compound 226]”: “HCC, GC”.
Turning to “395 (LYINKANIW; listed as Homo sapiens) [compound 395]”, the ENTITIES result was “NSCLC, GC, HCC”.
“117 (IYLSDLTYI; listed as Homo sapiens) [compound 117]”: the ENTITIES entry is listed as “HCC, NSCLC, GC, PCA”.
Take “99 (QYILAVPVL; listed as Homo sapiens) [compound 99]”: the ENTITIES entry was “NSCLC, GC, GB, PCA”.
With “411 (VYIGHTSTI; listed as Homo sapiens) [compound 411]”, the ENTITIES entry was “NSCLC”.
“215 (SYVASFFLL; listed as Homo sapiens) [compound 215]”: the ENTITIES entry was “GC, NSCLC”.
On to “264 (LYTETRLQF; listed as Homo sapiens) [compound 264]”, for which the ENTITIES result was “NSCLC”.
Still for that read-out and setting: in the case of “274 (KQLDIANYELF; listed as Homo sapiens) [compound 274]” it was “NSCLC, GB, HCC”; in that of “362 (VYNYAEQTL; listed as Homo sapiens) [compound 362]”, “GC, GB, NSCLC”; in that of “155 (IYKWITDNF; listed as Homo sapiens) [compound 155]”, “HCC, NSCLC, GC, GB”.
“312 (SYTSVLSRL; listed as Homo sapiens) [compound 312]”: the ENTITIES entry was “PCA, HCC, NSCLC”.
The same measure, in the same setting: in the case of “296 (SYQVIFQHF; listed as Homo sapiens) [compound 296]” it was “NSCLC, GC”; in that of “254 (KYLESSATF; listed as Homo sapiens) [compound 254]”, “NSCLC”.
“163 (RYLTISNLQF; listed as Homo sapiens) [compound 163]”: the ENTITIES entry is “NSCLC”.
Same read-out and setting: the same measure for “114 (QYLDGTWSL; listed as Homo sapiens) [compound 114]”: “NSCLC, GC, GB”; for “295 (SYLVIHERI; listed as Homo sapiens) [compound 295]”: “NSCLC, GC”.
For the substance “255 (VYQKIILKF; listed as Homo sapiens) [compound 255]”, the ENTITIES entry was “HCC”.
On to “192 (RYSTFSEIF; listed as Homo sapiens) [compound 192]”, for which the ENTITIES entry was “HCC, NSCLC, GC”.
In the case of “387 (KYTEKLEEI; listed as Homo sapiens) [compound 387]”, the ENTITIES entry was “HCC, NSCLC, GB, PCA”.
On the same count and under the same terms, the same measure for “121 (RYGLPAAWSTF; listed as Homo sapiens) [compound 121]”: “HCC, NSCLC, GC”; for “159 (IYEETRGVL; listed as Homo sapiens) [compound 159]”: “HCC, NSCLC”; for “177 (VYFKAGLDVF; listed as Homo sapiens) [compound 177]”: “PCA, NSCLC”.
Take “388 (IYGEKTYAF; listed as Homo sapiens) [compound 388]”: the ENTITIES entry was “HCC, NSCLC, GC, RCC, GB, PCA”.
Still for that read-out and setting: in the case of “195 (AYIKGGWIL; listed as Homo sapiens) [compound 195]” it was “RCC, HCC, NSCLC, GC”; in that of “355 (IYVTGGHLF; listed as Homo sapiens) [compound 355]”, “HCC, NSCLC, GC, RCC, GB, PCA”; in that of “229 (IYQFVADSF; listed as Homo sapiens) [compound 229]”, “NSCLC”.
As to “151 (AYISGLDVF; listed as Homo sapiens) [compound 151]”, the ENTITIES result was “HCC, NSCLC, PCA”.
As to “199 (SYLNHLNNL; listed as Homo sapiens) [compound 199]”, the ENTITIES entry is reported as “NSCLC”.
Turning to “169 (NYITGKGDVF; listed as Homo sapiens) [compound 169]”, the ENTITIES result is recorded as “NSCLC, PCA”.
In the case of “168 (RYLEAALRL; listed as Homo sapiens) [compound 168]”, the ENTITIES result is “NSCLC, GC, GB, PCA, HCC”.
On the same count and under the same terms, in the case of “148 (SYGTVSQIF; listed as Homo sapiens) [compound 148]” it was “PCA, HCC, NSCLC, GC, GB”.
As for “390 (RYLWATVTI; listed as Homo sapiens) [compound 390]”, the ENTITIES entry is “GC, HCC, NSCLC”.
With “307 (GYAFTLPLF; listed as Homo sapiens) [compound 307]”, the ENTITIES entry is “NSCLC, GC”.
On the same count and under the same terms, the same measure for “102 (VYPFENFEF; listed as Homo sapiens) [compound 102]”: “GC, NSCLC”; for “175 (LYSPVPFTL; listed as Homo sapiens) [compound 175]”: “GB, NSCLC”; for “259 (YFIKSPPSQLF; listed as Homo sapiens) [compound 259]”: “NSCLC, GC”.
Consider “315 (FYIPHVPVSF; listed as Homo sapiens) [compound 315]”, for which the ENTITIES entry is reported as “HCC, NSCLC”.
Same read-out and setting: in the case of “103 (NYIPVKNGKQF; listed as Homo sapiens) [compound 103]” it was “PCA, HCC, NSCLC, GB”; in that of “101 (IYIPVLPPHL; listed as Homo sapiens) [compound 101]”, “HCC, NSCLC”.

The series is the same for the next values; noted with them: Table 9B: selected HLA-A*24 peptides; presentation on additional cancer entities.
On to “278 (KYVNLVMYF; listed as Homo sapiens) [compound 278]”, for which the “Peptide Presentation on cancer entities” value is given as “NSCLC”.
The same measure, in the same setting: in the case of “108 (PYLVVIHTL; listed as Homo sapiens) [compound 108]” it was “NSCLC”; in that of “155 (IYKWITDNF; listed as Homo sapiens) [compound 155]”, “PCA”; in that of “216 (FYVNVKEQF; listed as Homo sapiens) [compound 216]”, “NSCLC”.
“233 (QYLTAAALHNL; listed as Homo sapiens) [compound 233]”: the “Peptide Presentation on cancer entities” value is reported as “NSCLC”.
Turning to “282 (NYLVDPVTI; listed as Homo sapiens) [compound 282]”, the “Peptide Presentation on cancer entities” value was “NSCLC”.
As for “263 (RYILENHDF; listed as Homo sapiens) [compound 263]”, the “Peptide Presentation on cancer entities” value is “HCC”.
Same read-out and setting: the same measure for “230 (TYGMVMVTF; listed as Homo sapiens) [compound 230]”: “NSCLC”; for “148 (SYGTVSQIF; listed as Homo sapiens) [compound 148]”: “CRC”.
In the case of “242 (VYGEPRELL; listed as Homo sapiens) [compound 242]”, the “Peptide Presentation on cancer entities” value is “HCC”.
On to “279 (VWLPASVLF; listed as Homo sapiens) [compound 279]”, for which the “Peptide Presentation on cancer entities” value is reported as “NSCLC”.
